Reference: patent US20220096538A1, “PHARMACEUTICAL COMPOSITIONS AND METHODS FOR PREVENTION AND/OR TREATMENT OF INFLAMMATION” (priority 2020, published 2022)
For part of these data: For at least one compound, name, drawing or mass did not settle the structure. Some results were stated once for a whole list of compounds, not compound by compound.

How the values were obtained:
[1] = system: LPS-GalN induced liver injury; test: LPS-GalN model, treatment 2 h post LPS-GalN: liver histopathological score
[2] = cited from earlier work

| SMILES | liver histopathological scores, range ([1]; DEX (0.6)) | liver histopathological scores, range ([1]; DEX (6.0)) | Approximate Equivalent Dose [2] |
| --- | --- | --- | --- |
| C[C@@H]1C[C@H]2[C@@H]3CCC4=CC(=O)C=C[C@]4(C)[C@@]3(F)[C@@H](O)C[C@]2(C)[C@@]1(O)C(=O)CO [DEX, dexamethasone] | 2-3 | 2-3 | – |
| C[C@]12CCC(=O)C=C1CC[C@H]1[C@@H]3CC[C@](O)(C(=O)CO)[C@@]3(C)C[C@H](O)[C@@]12F [Fludrocortisone] | – | – | 0.1 mg |
